PubChem BioAssay AID1487 (National Center for Advancing Translational Sciences (NCATS), 2009)
The other results are listed elsewhere or left out. These are further read-outs of the screen, such as a control signal, another cell line or another target. No call is given for them. Compounds called inactive in the main read-out are mostly missing here. Potencies come from curve fits of mixed quality, noted in brackets.

Experiment: qHTS Assay for Modulators of Lamin A Splicing
Conditions: HeLa LMNA splicing GFP/RFP minigene ratio, 48 h
Procedure, shortened: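 Read-out is the ratio of GFP to DsRed2 object intensity, acquired by 488 nm laser-scanning cytometry on HeLa lamin A-EGFP minigene reporter cells. Compound incubation 48 hrs at 37 °C in Opti-MEM with 2% FBS; DMSO 0.5% final.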

[1] = measured here: GFP splicing reporter channel
[2] = measured here: RFP viability control channel

SMILES	AC50 [1]	AC50 [2]
Nn1cnc2c(c1=O)C1(CCCCC1)Cc1ccccc1-2	22.4 µM [rising, single point]	
Cc1nn(Cc2ccccc2Cl)c2sc(C(=O)Nc3ccccc3N3CCOCC3)cc12	11.2 µM [rising, single point]	15.8 µM [rising, single point]
CCCSCC(=O)Nc1ncc2c(n1)-c1ccccc1CC2		0.0282 µM [falling, full curve, poor fit]
NC(=O)/C(=C\c1cccnc1)NC(=O)c1ccccc1		0.282 µM [falling, partial curve, poor fit]
CC1C(=O)CCN(C(C)(C)C)C1C (stereo unspecified)		31.6 µM [rising, single point]
Cc1cc(C)nc(N2CCN(C(=O)c3ccc(S(=O)(=O)N4CCCCCC4)cc3)CC2)n1	1 µM [rising, partial curve]	1.41 µM [rising, full curve, poor fit]
Cc1cccc(C(=O)N[C@H](C(=O)Nc2nc3ccc(S(C)(=O)=O)cc3s2)C(C)C)c1	7.08 µM [falling, partial curve, poor fit]	
Cc1ccccc1S(=O)(=O)Nc1ncc(C(F)(F)F)cc1Cl		5.62 µM [rising, single point]
COc1ccccc1-c1cc(C(F)(F)F)nc(S(C)(=O)=O)n1		22.4 µM [falling, single point]
OCCNc1nc(SCc2ccccc2)nc2sc3c(c12)CCC3	2.51 µM [falling, partial curve]	2.51 µM [falling, partial curve]
Cc1oc(CC(C)C)cc1C(=O)Nc1ccc(C(=O)O)cc1	7.94 µM [rising, partial curve, poor fit]	
COc1ccc(CNC(=O)c2ccc3c(c2)NC(=O)C(C)S3)cc1 (stereo unspecified)		0.0562 µM [falling, full curve, poor fit]
CC1CCN(S(=O)(=O)c2ccc(NC(=O)Cc3ccccc3)cc2)CC1	22.4 µM [rising, single point]	35.5 µM [rising, single point]
O=C1c2cccc3cccc(c23)N1Cc1ccc(F)cc1		31.6 µM [rising, single point]
CN(/C(=N/S(=O)(=O)c1cccs1)c1ccccc1)c1ccccc1		6.31 µM [rising, single point]
Cc1occc1C(=O)N/N=C/C=C\c1ccccc1[N+](=O)[O-]		0.631 µM [rising, partial curve, poor fit]
Cc1ccc(-c2nnc(CSc3nnc(COc4ccccc4)n3-c3ccc(C)cc3)o2)cc1		7.94 µM [rising, partial curve, poor fit]
c1ccc2c(N3CCOCC3)nc(-c3ccoc3)nc2c1	2.51 µM [falling, partial curve, poor fit]	
CCCS(=O)(=O)N1CCC(C(=O)NCCCOCC)CC1		0.0501 µM [falling, full curve, poor fit]

SMILES	AC50 [1]	AC50 [2]
COc1cccc(/C=N/NC(=O)C(=O)Nc2ccccc2OC(F)(F)C(F)F)c1O	2.82 µM [rising, partial curve]	15.8 µM [rising, partial curve, poor fit]
Cc1ccc(-n2ncc3c(Nc4ccccc4C)ncnc32)cc1	31.6 µM [falling, partial curve, poor fit]	
CCOc1ccc(CCNC(=O)c2cc3sccc3n2C)cc1OCC		14.1 µM [rising, single point]
CS(=O)(=O)c1nc(-c2ccc(Br)cc2)cc(-c2ccccc2)c1C#N	10 µM [falling, partial curve, poor fit]	
O=S(=O)(c1ccccc1)n1ccc2ccccc21		3.98 µM [rising, full curve, poor fit]
CCOC(=O)c1c(NC(=O)CSc2nnnn2CC)sc(C)c1C		20 µM [rising, single point]
Cc1cc(C(=O)CSc2nnc(-c3ccco3)o2)c(C)n1CC1COc2ccccc2O1 (stereo unspecified)	22.4 µM [rising, single point]	35.5 µM [rising, single point]
O=C(NNC(=S)NCCc1ccccc1)c1ccc(Br)s1	1.41 µM [rising, partial curve]	2 µM [rising, partial curve]
NC(=O)c1ccc(C23CC4CC(CC(C4)C2)C3)o1	11.2 µM [rising, single point]	14.1 µM [rising, single point]
O=c1c(-c2cc(F)cc(F)c2)nc2cnc(N3CCNCC3)nc2n1Cc1ccc(F)cc1	15.8 µM [falling, partial curve]	17.8 µM [falling, single point]
CCc1nc(N=C(N)N)nc2ccccc12	0.00316 µM [falling, full curve, poor fit]	
Cn1cc(C(=O)NCc2ccccc2F)cn1	0.00891 µM [falling, full curve, poor fit]	0.355 µM [falling, partial curve, poor fit]
O=C(COC(=O)c1n[nH]c2ccccc12)Nc1ccc(S(=O)(=O)N2CCCC2)cc1		8.91 µM [rising, partial curve]
O=C(/C=C/c1ccc2c(c1)OCO2)c1ccc[nH]1		8.91 µM [rising, partial curve, poor fit]
Cc1cc(SC(C)C(=O)Nc2ncc(Cl)cc2Cl)nc2ccccc12 (stereo unspecified)		6.31 µM [rising, partial curve]
CCOc1ccc(NS(=O)(=O)c2ccc3[nH]c(=O)cc(C(=O)O)c3c2)cc1	3.98 µM [rising, single point]	
c1nc2nc3c(c(N4CCOCC4)n2n1)CCCC3	3.55 µM [falling, single point]	2 µM [falling, single point]
Cc1cccc(NC(=O)C2CCN(S(=O)(=O)c3c(C)nn(C)c3C)CC2)n1		11.2 µM [rising, single point]
COc1cccc(C(=O)NCCSc2ccc(Br)cc2)c1		11.2 µM [falling, single point]

Record cards, from the list above:
O=C(/C=C/c1ccc2c(c1)OCO2)c1ccc[nH]1 as listed: AC50 [2]: 8.91 µM [rising, partial curve, poor fit]
Cn1cc(C(=O)NCc2ccccc2F)cn1 as listed: AC50 [1]: 0.00891 µM [falling, full curve, poor fit]; AC50 [2]: 0.355 µM [falling, partial curve, poor fit]

(continued)

SMILES	AC50 [1]	AC50 [2]
Cc1ccccc1C(=O)Nc1ccc2c(c1)CCCN2C(=O)c1cccs1	5.62 µM [falling, full curve, poor fit]	5.01 µM [rising, full curve]
COC(=O)c1c(C)[nH]c(C)c1-c1ccccc1Cl	11.2 µM [rising, partial curve]	11.2 µM [rising, partial curve, poor fit]
O=C(Nc1nc(-c2ccccc2)cs1)c1cccc(S(=O)(=O)N2CCN(Cc3ccccc3)CC2)c1		11.2 µM [rising, partial curve]
CCCn1c(SCC(=O)N2CCN(c3ccccc3)CC2)nc2ccccc2c1=O		35.5 µM [rising, single point]
CC1CCc2c(C(=O)OCC(=O)Nc3cccc(S(=O)(=O)N4CCCCCC4)c3)csc2C1 (stereo unspecified)	35.5 µM [rising, single point]	35.5 µM [rising, single point]
CC(C)(C)c1cc(C(C)(C)C)cc(S(=O)(=O)CCc2ccccn2)c1	35.5 µM [rising, single point]	
CCc1nc(-c2ccccc2O)n(-c2ccccc2)n1		0.0224 µM [falling, full curve, poor fit]
CC(=O)/C(=N/Nc1ccccc1)Sc1nnc(CCc2ccccc2)n1-c1ccccc1		20 µM [rising, partial curve, poor fit]
COc1ccc(-n2c(SCC(=O)Nc3ncc(Cl)cc3Cl)nc3ccccc32)cc1		3.16 µM [rising, single point]
Cc1ccc(NC(=O)c2ccc(-n3cccn3)c([N+](=O)[O-])c2)cc1C		35.5 µM [rising, single point]
CCn1c2ccccc2c2cc(C3N=C(N)Nc4nc5ccccc5n43)ccc21 (stereo unspecified)		1.12 µM [rising, partial curve, poor fit]
COC(=O)C1=C(C)NC=C([N+](=O)[O-])C1c1ccc(OC)cc1 (stereo unspecified)	15.8 µM [rising, single point]	15.8 µM [rising, single point]
Cc1noc(/C=C/c2ccco2)c1S(=O)(=O)N1CCC(C(=O)N2CCc3ccccc3C2)CC1	11.2 µM [rising, partial curve]	15.8 µM [rising, partial curve]
CC(=O)Nc1sc(N/N=C\c2ccccc2Cl)nc1-c1cccs1	0.501 µM [rising, full curve, poor fit]	0.398 µM [rising, full curve]
CC1(C)Cc2ccccc2-c2nc(-c3ccccc3)oc(=O)c21		5.62 µM [rising, partial curve]
CCCCOc1ccc(C(=O)Nc2nc3c(s2)CC(C)CC3)cc1 (stereo unspecified)		0.0126 µM [falling, full curve]
CC(=O)c1cc(-c2ccccc2)n(CCC(=O)NC2CCCCCC2)c1C		35.5 µM [rising, single point]
Cc1ccc(Cl)cc1Nc1nc(-c2sc(NC(=O)C(C)(C)C)nc2C)cs1	17.8 µM [rising, single point]	15.8 µM [rising, partial curve]
C=CCNC(=S)N/N=C/c1ccc(N(CC)Cc2ccccc2)cc1	12.6 µM [rising, partial curve]	11.2 µM [rising, partial curve]
